# The list shows a part of the results.
# Tested on: T1, CTL2-GFP (C. trachomatis L2/434/Bu, GFP-expressing)
# T1 construct: L2/434/Bu, GFP-expressing
# Design: species or system HeLa; Intracellular C. trachomatis growth in HeLa cells, bulk GFP fluorescence relative to DMSO
# Settings: bulk GFP, single well; 28.5 h, 10 µM; inhibitor
row,Structure (SMILES),% of control remaining [%]
1,CSCCN(C)C(=O)c1nnn(Cc2ccc(F)cc2F)c1C [CBK306468],110.023
2,CC(=O)Oc1cccc(N2C(=O)c3ccc(Oc4cccc(N)c4)cc3C2=O)c1 [CBK261099],100.575
3,COc1ccccc1-c1ccc(CC2(C(=O)NCc3cccs3)CCOCC2)cc1 [CBK286517],108.641
4,CS(=O)(=O)N1CC2(CCN(Cc3cccnc3)CC2)c2ccccc21 [CBK084006],94.2917
5,O=C1CC(c2ccccc2)n2nc(C(F)(F)F)nc2N1 (stereo not drawn) [CBK288063],107.114
6,Oc1ccc2ccccc2c1/C=N/Nc1nc(NCc2ccccc2)nc(N2CCOCC2)n1 [CBK261233],100
7,COC(=O)CCc1ccc(S(=O)(=O)N2CCCN(Cc3ccc(C)o3)CC2)cc1 [CBK063081],127.215
8,O=C(O)c1cc(C(=O)O)c2ccccc2n1 [CBK262304],138.403
9,Cc1cc(C)n(-c2nc3ccccc3nc2N2CCN(S(=O)(=O)c3ccc(F)c(C)c3)CC2)n1 [CBK268508],112.253
10,Cc1ccc(S(=O)(=O)Cc2ccc(C(=O)NCc3ccco3)cc2)cc1 [CBK268630],94.855
11,COc1ccc([C@@]23CC=C(N(Cc4ccccc4)C(=O)Nc4ccc(F)c(F)c4)C[C@@H]2N(C)CC3)cc1OC [CBK050179],27.9795
12,Cc1c(NC(=O)c2ccccc2Cl)c(=O)n(-c2ccccc2)n1C [CBK088068],99.9591
13,COc1ccc(CCNc2c3c(c(C#N)c4nc5ccccc5n24)CCC3)cc1OC [CBK263147],82.7685
14,OC(COc1cccc2c1CCCC2)CN1CCC(O)(c2ccccc2)CC1 (stereo not drawn) [CBK003585],108.459
15,O=C(NCc1cc(C2CC2)[nH]n1)C1(c2ccccc2F)CC1 [CBK283140],124.398
16,COc1cc(OC)nc(CN2C(=O)CC3(C2=O)C(=O)N(CC(=O)c2ccccc2)c2ccc(C)cc23)n1 (stereo not drawn) [CBK076059],99.6922
17,COC(=O)C1CCCN1C(=O)C1(Oc2ccc(C)cc2)CCNCC1 (stereo not drawn) [CBK306655],146.27
18,COc1cccc(NC(=O)CCN2CCN(CCO)CC2)c1 [CBK264207C],129.762
19,O=C(O)c1ccccc1C(=O)Nc1cccc(-c2noc(-c3cccc(F)c3)n2)c1 [CBK299813],158.305
20,Nc1ncc(-c2cccnc2)nc1NC1CCC(O)CC1 (stereo not drawn) [CBK063840],122.898
21,Cc1nc2ccccc2n1CCNC(=O)c1ccccc1SCc1ccc(C#N)cc1 [CBK297082],108.633

# Part of the list above, set out differently.
row	Structure (SMILES)	% of control remaining [%]
8	O=C(O)c1cc(C(=O)O)c2ccccc2n1 [CBK262304]	138.403
9	Cc1cc(C)n(-c2nc3ccccc3nc2N2CCN(S(=O)(=O)c3ccc(F)c(C)c3)CC2)n1 [CBK268508]	112.253

# — article PMC12040169 (PLOS Biology, 2025)
